Laboratory results: the supplement of paper PMC12823440, “Inhibitors supercharge kinase turnover through native proteolytic circuits” (Nature, 2025)
Counter-ions that a name gives are not always drawn. The list shows a part of the results. The calls rarely recur for the same compound in another form.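 Kinases were expressed as nanoluciferase fusions in K562 cells and luminescence was read every 4 h between 2 and 18 h as percent of control, DMSO set to 100% and a positive control to 0%. A time point counts as decreased when the signal drops significantly (2 sigma). The hit call is the authors' own, does not follow from the count of time points alone, and its rule is not shown.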

By UniProt entry, the sequences of proteins in these tests, tags left out. Where a name states a change or a piece, a line headed by the entry shows the natural chain unless it says otherwise.
UniProt Q9UQM7, whole entry: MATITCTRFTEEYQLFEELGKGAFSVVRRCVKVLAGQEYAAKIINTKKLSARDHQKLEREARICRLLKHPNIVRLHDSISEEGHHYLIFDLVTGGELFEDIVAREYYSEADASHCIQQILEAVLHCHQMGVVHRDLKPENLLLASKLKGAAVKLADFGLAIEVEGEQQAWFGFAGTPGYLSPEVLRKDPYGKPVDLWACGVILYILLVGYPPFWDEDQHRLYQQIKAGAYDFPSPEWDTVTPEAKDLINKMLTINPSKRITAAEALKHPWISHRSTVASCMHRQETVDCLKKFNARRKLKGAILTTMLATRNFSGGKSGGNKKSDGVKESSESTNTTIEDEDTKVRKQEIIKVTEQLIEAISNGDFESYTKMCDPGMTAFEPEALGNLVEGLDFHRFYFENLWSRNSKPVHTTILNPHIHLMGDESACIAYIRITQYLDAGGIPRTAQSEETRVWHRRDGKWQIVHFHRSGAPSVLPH
UniProt Q13555: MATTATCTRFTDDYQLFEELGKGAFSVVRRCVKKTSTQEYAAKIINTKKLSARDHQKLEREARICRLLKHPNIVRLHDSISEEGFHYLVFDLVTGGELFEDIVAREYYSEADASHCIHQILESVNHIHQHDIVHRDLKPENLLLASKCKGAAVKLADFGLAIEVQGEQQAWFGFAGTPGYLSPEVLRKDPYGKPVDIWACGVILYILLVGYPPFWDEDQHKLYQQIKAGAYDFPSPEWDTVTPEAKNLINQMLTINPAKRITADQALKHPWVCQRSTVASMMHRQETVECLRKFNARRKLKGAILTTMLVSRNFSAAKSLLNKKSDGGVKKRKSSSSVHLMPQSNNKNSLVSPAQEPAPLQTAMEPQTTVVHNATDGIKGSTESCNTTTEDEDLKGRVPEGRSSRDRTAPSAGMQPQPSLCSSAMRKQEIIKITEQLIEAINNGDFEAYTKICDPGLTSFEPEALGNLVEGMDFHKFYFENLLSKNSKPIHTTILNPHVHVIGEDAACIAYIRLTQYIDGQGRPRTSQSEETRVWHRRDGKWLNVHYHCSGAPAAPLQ
UniProt Q15131: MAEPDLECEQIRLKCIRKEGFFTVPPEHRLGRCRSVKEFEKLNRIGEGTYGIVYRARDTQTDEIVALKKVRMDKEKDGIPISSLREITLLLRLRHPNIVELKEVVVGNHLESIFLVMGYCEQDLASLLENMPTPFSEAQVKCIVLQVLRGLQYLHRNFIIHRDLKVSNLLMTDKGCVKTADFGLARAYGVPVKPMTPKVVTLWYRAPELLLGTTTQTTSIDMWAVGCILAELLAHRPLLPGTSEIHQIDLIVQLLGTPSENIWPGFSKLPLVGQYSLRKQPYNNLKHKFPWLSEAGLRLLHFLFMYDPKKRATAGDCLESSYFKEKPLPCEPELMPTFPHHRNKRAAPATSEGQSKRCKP
UniProt Q00526: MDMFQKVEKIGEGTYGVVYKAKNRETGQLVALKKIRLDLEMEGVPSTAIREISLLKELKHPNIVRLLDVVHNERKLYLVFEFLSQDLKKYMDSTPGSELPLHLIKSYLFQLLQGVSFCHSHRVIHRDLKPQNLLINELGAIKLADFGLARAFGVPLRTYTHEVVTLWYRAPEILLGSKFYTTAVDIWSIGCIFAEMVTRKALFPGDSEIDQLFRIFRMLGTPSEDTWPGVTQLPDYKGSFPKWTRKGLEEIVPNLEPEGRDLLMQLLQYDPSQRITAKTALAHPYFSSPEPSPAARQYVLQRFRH
UniProt Q00535, whole entry, looked up: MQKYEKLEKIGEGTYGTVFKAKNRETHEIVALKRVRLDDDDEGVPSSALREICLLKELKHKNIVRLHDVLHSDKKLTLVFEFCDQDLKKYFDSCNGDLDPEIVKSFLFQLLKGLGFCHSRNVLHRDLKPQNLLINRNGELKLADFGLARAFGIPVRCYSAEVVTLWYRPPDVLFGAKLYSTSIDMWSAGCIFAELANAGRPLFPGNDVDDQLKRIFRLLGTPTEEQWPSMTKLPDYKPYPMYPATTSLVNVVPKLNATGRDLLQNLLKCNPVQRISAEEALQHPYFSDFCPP
UniProt Q00534, whole entry: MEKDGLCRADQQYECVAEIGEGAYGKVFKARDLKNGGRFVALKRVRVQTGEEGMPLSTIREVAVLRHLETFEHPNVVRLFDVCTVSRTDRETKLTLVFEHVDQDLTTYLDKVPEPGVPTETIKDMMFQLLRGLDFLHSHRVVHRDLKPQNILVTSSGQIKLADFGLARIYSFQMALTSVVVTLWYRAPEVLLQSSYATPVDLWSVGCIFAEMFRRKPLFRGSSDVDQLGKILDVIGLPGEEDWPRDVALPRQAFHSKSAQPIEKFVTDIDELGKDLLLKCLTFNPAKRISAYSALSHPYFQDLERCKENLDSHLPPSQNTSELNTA
UniProt O96017, whole entry: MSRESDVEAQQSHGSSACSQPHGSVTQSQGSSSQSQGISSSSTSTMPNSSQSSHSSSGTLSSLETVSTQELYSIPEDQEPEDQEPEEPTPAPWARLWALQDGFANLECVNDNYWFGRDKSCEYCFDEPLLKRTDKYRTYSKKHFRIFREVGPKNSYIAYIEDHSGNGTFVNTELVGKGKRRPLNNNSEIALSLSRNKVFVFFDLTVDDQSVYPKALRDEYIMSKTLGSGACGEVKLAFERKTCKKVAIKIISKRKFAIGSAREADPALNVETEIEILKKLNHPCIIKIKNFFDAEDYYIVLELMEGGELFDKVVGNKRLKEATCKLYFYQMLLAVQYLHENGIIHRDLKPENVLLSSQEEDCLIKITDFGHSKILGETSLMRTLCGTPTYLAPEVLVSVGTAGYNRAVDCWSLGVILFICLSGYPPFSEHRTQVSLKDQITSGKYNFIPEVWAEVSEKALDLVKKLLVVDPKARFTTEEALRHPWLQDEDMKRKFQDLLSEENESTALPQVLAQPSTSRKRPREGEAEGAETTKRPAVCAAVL
UniProt P07333, whole entry: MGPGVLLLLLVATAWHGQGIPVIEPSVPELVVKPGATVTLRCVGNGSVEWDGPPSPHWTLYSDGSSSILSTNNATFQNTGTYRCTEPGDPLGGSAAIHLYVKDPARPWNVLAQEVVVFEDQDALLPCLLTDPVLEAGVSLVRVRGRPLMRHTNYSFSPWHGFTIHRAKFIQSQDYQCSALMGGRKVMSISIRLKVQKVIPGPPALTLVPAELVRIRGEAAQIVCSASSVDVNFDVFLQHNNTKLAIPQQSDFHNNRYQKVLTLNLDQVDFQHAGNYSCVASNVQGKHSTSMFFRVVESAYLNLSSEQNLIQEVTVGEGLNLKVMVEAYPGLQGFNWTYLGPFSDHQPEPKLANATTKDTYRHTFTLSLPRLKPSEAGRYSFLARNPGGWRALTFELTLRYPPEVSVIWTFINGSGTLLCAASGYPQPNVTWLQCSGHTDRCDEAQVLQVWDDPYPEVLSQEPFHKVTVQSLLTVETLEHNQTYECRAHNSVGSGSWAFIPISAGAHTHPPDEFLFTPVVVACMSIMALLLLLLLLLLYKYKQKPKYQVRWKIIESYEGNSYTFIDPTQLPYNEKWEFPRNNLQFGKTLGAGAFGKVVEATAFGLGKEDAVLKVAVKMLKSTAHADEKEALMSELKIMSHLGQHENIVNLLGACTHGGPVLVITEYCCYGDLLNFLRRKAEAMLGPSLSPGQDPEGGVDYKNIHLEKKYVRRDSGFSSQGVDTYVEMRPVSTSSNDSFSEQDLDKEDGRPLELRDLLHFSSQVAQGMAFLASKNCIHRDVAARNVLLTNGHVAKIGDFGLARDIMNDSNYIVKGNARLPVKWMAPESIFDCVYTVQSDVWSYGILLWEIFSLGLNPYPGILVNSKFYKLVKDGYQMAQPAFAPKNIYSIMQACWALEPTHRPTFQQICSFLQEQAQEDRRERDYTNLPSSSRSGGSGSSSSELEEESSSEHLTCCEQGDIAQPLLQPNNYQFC
UniProt P41240: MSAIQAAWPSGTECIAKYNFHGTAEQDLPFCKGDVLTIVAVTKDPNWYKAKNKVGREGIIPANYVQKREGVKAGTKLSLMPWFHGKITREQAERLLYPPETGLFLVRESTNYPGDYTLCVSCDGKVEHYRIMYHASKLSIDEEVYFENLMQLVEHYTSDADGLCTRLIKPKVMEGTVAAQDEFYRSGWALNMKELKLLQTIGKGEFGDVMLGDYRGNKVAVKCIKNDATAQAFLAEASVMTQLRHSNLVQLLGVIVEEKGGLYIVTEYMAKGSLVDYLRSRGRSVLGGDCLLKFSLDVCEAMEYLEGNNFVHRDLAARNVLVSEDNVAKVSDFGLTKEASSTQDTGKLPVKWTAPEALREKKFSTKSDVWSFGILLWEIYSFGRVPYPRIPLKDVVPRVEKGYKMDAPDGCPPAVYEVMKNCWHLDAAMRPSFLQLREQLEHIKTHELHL
UniProt P48729: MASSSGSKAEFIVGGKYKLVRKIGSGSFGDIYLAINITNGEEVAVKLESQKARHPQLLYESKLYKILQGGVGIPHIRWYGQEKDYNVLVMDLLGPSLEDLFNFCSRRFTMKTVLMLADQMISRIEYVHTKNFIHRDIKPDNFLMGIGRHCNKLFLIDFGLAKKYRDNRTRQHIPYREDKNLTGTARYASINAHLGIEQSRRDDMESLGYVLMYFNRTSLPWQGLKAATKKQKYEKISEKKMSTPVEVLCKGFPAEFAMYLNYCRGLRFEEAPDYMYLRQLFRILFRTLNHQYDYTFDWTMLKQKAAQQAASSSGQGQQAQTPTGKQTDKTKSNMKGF
UniProt P48730: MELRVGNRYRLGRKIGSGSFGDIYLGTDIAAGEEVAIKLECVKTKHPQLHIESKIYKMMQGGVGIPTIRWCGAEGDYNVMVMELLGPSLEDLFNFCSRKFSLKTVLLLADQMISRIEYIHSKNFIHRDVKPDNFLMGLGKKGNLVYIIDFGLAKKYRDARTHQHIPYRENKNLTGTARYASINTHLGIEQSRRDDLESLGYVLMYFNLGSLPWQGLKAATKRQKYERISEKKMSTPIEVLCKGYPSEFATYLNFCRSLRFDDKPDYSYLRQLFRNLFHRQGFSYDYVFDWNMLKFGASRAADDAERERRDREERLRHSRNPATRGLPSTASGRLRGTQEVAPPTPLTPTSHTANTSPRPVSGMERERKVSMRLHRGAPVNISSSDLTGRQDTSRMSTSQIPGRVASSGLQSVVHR
UniProt Q08345: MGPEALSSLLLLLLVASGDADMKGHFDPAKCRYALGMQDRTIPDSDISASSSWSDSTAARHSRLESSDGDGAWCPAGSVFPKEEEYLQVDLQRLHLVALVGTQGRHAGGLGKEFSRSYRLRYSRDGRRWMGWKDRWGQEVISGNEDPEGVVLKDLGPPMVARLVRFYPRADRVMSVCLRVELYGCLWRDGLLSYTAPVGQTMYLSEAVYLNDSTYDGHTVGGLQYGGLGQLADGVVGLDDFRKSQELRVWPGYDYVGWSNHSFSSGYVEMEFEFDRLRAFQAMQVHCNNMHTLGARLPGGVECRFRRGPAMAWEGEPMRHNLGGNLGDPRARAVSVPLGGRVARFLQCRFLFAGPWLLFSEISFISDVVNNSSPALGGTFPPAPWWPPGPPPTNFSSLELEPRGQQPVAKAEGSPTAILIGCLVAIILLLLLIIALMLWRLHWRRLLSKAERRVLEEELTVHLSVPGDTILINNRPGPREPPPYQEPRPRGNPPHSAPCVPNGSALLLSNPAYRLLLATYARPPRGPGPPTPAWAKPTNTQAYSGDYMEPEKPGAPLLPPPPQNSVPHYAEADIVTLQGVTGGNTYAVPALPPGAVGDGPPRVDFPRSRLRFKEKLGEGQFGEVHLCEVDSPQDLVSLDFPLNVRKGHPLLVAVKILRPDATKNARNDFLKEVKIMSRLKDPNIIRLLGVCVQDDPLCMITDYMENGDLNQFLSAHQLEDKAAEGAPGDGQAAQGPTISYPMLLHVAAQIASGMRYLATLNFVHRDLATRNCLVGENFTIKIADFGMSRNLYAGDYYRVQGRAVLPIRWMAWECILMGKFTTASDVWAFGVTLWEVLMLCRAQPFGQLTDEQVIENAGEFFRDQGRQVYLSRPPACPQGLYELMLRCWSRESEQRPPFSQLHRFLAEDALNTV
UniProt Q9Y463, whole entry, looked up: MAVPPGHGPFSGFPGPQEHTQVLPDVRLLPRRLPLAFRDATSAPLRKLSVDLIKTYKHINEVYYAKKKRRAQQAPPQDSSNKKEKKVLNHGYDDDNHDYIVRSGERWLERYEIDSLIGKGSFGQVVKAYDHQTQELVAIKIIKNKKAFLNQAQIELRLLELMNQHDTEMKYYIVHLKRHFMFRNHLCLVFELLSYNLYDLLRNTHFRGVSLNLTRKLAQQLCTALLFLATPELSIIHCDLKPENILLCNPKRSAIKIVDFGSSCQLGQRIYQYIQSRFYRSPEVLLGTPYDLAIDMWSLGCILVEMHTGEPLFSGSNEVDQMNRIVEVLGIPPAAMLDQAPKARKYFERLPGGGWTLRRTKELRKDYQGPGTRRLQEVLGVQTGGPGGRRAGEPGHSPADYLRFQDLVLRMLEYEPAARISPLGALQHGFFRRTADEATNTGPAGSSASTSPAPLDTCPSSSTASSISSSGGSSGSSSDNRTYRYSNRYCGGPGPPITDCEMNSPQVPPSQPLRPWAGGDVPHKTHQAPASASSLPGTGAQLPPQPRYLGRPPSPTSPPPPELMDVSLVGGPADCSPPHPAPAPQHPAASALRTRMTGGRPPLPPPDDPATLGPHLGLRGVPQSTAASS

Experiments:
Assay in all cases: number of time points (of 5) at which kinase-Nluc abundance scored as decreased, DMSO-normalised (count); higher = more persistent destabilization
Conditions in all cases: K562; 2-18 h
[1] = molecular target: CAMK2A (UniProt Q9UQM7)
[2] = molecular target: CAMK2G (UniProt Q13555)
[3] = molecular target: CDK10 (UniProt Q15131)
[4] = molecular target: CDK2 (UniProt P24941)
[5] = molecular target: CDK3 (UniProt Q00526)
[6] = molecular target: CDK5 (UniProt Q00535)
[7] = molecular target: CDK6 (UniProt Q00534)
[8] = molecular target: CHEK2 (UniProt O96017)
[9] = molecular target: CSF1R (UniProt P07333)
[10] = molecular target: CSK (UniProt P41240)
[11] = molecular target: CSNK1A1 (UniProt P48729)
[12] = molecular target: CSNK1D (UniProt P48730)
[13] = molecular target: DDR1 (UniProt Q08345)
[14] = molecular target: DYRK1B (UniProt Q9Y463)
[15] = molecular target: DYRK2 (UniProt Q92630)
[16] = molecular target: EGFR (UniProt P00533)
[17] = molecular target: EGFR_G719S (UniProt P00533)
[18] = molecular target: EGFR_G719S_T790M (UniProt P00533)
[19] = molecular target: EGFR_L718V (UniProt P00533)
[20] = molecular target: EGFR_L858R (UniProt P00533)

Measured: number of time points

O=C(ON=C1c2ccccc2-c2nc3ccccc3nc21)c1ccco1 (2.5 µM)
0: all assays above

CCCn1/c(=N/C(=O)c2cccc(C(N)=O)c2)[nH]c2ccccc21 [Takinib] (10 µM)
0: all assays above

CC(C)CCN1c2nc(Nc3cc(F)c(O)c(F)c3)ncc2N(C)C(=O)C1C (stereo not given) (2.5 µM)
0: all assays above

COc1ccc(Br)cc1NC(=O)Nc1cccc2c1ccn2Cc1ccnc(N)c1 (2.5 µM)
2: [15]
0: all other assays above

c1nn(C2CCOCC2)cc1Nc1ncc2nnn(-c3ccc4cn[nH]c4c3)c2n1 (10 µM)
0: all assays above

C=CC(=O)N1CCN(C(=O)CNc2cc(I)c(Cl)cc2O)CC1 [K-Ras(G12C) inhibitor 12] (10 µM)
0: all assays above

CCc1c[nH]c2ncnc(N3CC[C@](N)(CNC(=O)c4ccc(F)cc4F)C3)c12 (10 µM)
0: all assays above

COc1cc2ncnc(Nc3ccc(O)c(Br)c3)c2cc1OC (10 µM)
0: all assays above

Cn1c(CNc2cccc(C(=O)NCc3ccccc3C(F)(F)F)c2)nnc1-c1ccncc1 (10 µM)
0: all assays above

NC(=O)c1cnc(-c2ccc(C3(N)CCC3)cc2)c(-c2ccccc2)c1 (10 µM)
0: all assays above

NC1(C(=O)NCCCn2cc(-c3ccc(OC(F)(F)F)cc3)c3cc(CN4CCN(Cc5c(Cl)cccc5Cl)CC4)ccc32)CCNCC1 (2.5 µM)
4: [15]
0: all other assays above

Nc1[nH]nc2nc(-c3ccc(NS(=O)(=O)c4cc(Cl)ccc4Cl)cc3)cnc12 (10 µM)
0: all assays above

Reprinted from the results shown (two entries):
CCCn1/c(=N/C(=O)c2cccc(C(N)=O)c2)[nH]c2ccccc21 [Takinib] (10 µM)
0: all assays above

CC(C)CCN1c2nc(Nc3cc(F)c(O)c(F)c3)ncc2N(C)C(=O)C1C (stereo not given) (2.5 µM)
0: all assays above

Following part

Brc1ccc(CSc2nc3ccccc3o2)cc1 [BMP signaling agonist sb4] (10 µM)
0: all assays above

CC(C)n1c([C@H](C)Nc2ncnc(N)c2C#N)cc2cccc(-c3ccc(=O)n(C)c3)c2c1=O (10 µM)
1: [13] | [15]
0: all other assays above

Nc1ncc(C(=O)NC2CN(C(=O)C3CC3)C2)c2ccc(-c3cccc(F)c3)nc12 (2 µM)
0: all assays above

Cc1cccc(COc2cccc(/C=C3\C(=O)NN(c4ccccc4)C3=O)c2)c1 (10 µM)
0: all assays above

COCCOc1ccc2c(c1)ncn2-c1ccc2cccc(N3CCC(N)CC3)c2n1 (10 µM)
4: [15]
2: [8] | [18] | [20]
3: [3] | [13]
1: [2] | [9] | [11]
0: all other assays above

Nc1ncnc2c1nc(Br)n2[C@@H]1O[C@@H]2COP(=O)(O)O[C@H]2[C@H]1O [8-Bromo-cAMP sodium salt] (10 µM)
0: all assays above

O=C1OC(/C=C/c2ccccc2)=NC/1=C\c1cccnc1 (10 µM)
0: all assays above

C[C@@H]1O[C@@H](Oc2cc(O)c3c(=O)c(O[C@@H]4O[C@@H](C)[C@H](O)[C@@H](O)[C@H]4O)c(-c4ccc(O)cc4)oc3c2)[C@H](O)[C@H](O)[C@H]1O [Kaempferitrin] (10 µM)
0: all assays above

COC(=O)/C=C/c1ccccc1 [Methyl cinnamate] (10 µM)
0: all assays above

Nc1nccc(-c2c(-c3ccc(F)cc3)ncn2C2CCCCC2)n1 (10 µM)
0: all assays above

C[C@@H](Nc1ncnc2[nH]c(-c3ccc(O)cc3)cc12)c1ccccc1 (2.5 µM)
0: all assays above

C=CC(=O)N1CC[C@@H](Oc2nc(Nc3ccc(N4CCC(N5CCN(C)CC5)CC4)cc3)c(C(N)=O)nc2CC)C1 [Naquotinib (mesylate)] (2.5 µM)
0: all assays above

COc1ccc(-c2cc(=O)c3c(OC)cc(OC)c(OC)c3o2)cc1 [6-Demethoxytangeretin] (10 µM)
0: all assays above
